Assay results published in publication PMC9501056.
No constants are given. Whether binding was seen depends on the method and setting. Binding seen in cells or lysates may run through a third protein. Binding can be weak; no strength is given.

T1: BEI (Oryza sativa subsp. indica cv. IR36 (endogenous in developing seeds)) (UniProt Q01401)
T1 sequence: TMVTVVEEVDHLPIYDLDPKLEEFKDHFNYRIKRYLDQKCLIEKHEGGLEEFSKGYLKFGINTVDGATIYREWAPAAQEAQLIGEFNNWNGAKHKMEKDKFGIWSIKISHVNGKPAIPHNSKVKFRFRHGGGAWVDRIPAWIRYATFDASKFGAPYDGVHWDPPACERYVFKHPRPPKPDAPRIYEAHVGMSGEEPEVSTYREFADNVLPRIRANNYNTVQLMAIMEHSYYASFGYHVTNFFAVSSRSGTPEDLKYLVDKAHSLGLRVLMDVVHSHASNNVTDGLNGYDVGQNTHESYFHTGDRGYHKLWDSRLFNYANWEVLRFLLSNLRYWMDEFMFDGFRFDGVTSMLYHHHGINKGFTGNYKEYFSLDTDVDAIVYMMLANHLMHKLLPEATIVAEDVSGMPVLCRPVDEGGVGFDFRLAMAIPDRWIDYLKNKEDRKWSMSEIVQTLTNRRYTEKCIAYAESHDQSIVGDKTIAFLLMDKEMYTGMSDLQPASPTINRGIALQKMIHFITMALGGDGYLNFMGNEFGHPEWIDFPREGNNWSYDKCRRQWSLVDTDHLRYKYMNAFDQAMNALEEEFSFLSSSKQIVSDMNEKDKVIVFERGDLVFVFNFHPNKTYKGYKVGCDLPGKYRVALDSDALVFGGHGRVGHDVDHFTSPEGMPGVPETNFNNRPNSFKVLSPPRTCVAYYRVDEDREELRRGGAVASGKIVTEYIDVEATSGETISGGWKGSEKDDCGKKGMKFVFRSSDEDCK

T2: SSIIa (Oryza sativa subsp. indica cv. IR36 (endogenous in developing seeds)) (UniProt P0C586)
T2 sequence: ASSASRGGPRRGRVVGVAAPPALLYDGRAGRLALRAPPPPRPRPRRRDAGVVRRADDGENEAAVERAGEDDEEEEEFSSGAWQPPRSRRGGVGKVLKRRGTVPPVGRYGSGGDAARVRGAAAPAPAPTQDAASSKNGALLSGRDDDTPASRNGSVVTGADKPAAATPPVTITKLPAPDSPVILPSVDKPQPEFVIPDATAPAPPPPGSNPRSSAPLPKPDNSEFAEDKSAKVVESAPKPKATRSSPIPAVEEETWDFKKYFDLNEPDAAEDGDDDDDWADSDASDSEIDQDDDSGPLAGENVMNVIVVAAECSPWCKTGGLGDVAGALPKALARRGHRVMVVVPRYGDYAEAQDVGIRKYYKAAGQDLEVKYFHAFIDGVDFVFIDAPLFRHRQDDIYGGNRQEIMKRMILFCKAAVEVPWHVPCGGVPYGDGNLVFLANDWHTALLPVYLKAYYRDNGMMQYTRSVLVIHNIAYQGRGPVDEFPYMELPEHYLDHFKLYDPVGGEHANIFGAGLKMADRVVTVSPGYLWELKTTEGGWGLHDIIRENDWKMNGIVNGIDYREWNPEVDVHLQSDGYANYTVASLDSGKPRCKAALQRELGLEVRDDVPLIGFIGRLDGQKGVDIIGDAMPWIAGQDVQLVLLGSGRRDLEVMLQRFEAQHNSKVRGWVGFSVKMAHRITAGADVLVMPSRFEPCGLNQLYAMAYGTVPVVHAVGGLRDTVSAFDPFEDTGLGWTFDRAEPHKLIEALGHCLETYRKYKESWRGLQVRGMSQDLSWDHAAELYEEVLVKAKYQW

T3: SSI (Oryza sativa subsp. indica cv. IR36 (endogenous in developing seeds)) (UniProt A2Y9M4)
T3 sequence: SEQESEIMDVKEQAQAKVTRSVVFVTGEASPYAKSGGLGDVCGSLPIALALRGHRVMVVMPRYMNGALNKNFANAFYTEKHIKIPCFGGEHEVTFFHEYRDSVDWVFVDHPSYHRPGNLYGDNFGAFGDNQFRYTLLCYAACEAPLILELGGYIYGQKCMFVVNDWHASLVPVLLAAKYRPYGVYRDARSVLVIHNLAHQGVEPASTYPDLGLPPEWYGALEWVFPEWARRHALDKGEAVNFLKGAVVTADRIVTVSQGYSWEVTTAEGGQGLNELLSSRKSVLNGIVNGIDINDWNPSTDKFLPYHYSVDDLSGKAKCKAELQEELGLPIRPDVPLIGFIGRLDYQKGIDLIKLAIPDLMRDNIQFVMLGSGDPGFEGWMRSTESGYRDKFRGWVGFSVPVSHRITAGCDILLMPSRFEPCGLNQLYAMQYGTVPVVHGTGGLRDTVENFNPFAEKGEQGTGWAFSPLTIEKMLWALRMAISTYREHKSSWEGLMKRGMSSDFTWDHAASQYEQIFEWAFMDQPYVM


Key:
[1] = biological target: T1, BEI (Oryza sativa subsp. indica cv. IR36 (endogenous in developing seeds)); experiment: co-IP; soluble proteins of developing seeds of the be2b mutant at 10 DAF incubated with isozyme-specific antibodies and protein A magnetic beads; washed with PBS pH 7.4; Western blotting
[2] = biological target: T2, SSIIa (Oryza sativa subsp. indica cv. IR36 (endogenous in developing seeds)); experiment: co-IP; soluble proteins of developing seeds of WT (IR36) at 10 DAF incubated with isozyme-specific antibodies and protein A magnetic beads; washed with PBS pH 7.4; Western blotting
[3] = biological target: T1, BEI (Oryza sativa subsp. indica cv. IR36 (endogenous in developing seeds)); experiment: as above
[4] = biological target: T3, SSI (Oryza sativa subsp. indica cv. IR36 (endogenous in developing seeds)); experiment: as above
[5] = biological target: T2, SSIIa (Oryza sativa subsp. indica cv. IR36 (endogenous in developing seeds)); experiment: co-IP; soluble proteins of developing seeds of WT (IR36) at 15 DAF incubated with isozyme-specific antibodies and protein A magnetic beads; washed with PBS pH 7.4; Western blotting
[6] = biological target: T1, BEI (Oryza sativa subsp. indica cv. IR36 (endogenous in developing seeds)); experiment: as above
[7] = biological target: T3, SSI (Oryza sativa subsp. indica cv. IR36 (endogenous in developing seeds)); experiment: as above
[8] = biological target: T2, SSIIa (Oryza sativa subsp. indica cv. IR36 (endogenous in developing seeds)); experiment: co-IP; soluble proteins of developing seeds of the be2b mutant at 15 DAF incubated with isozyme-specific antibodies and protein A magnetic beads; washed with PBS pH 7.4; Western blotting
[9] = biological target: T3, SSI (Oryza sativa subsp. indica cv. IR36 (endogenous in developing seeds)); experiment: as above
[10] = biological target: T1, BEI (Oryza sativa subsp. indica cv. IR36 (endogenous in developing seeds)); experiment: co-IP; soluble proteins of developing seeds of WT (IR36) at 5 DAF incubated with isozyme-specific antibodies and protein A magnetic beads; washed with PBS pH 7.4; Western blotting
[11] = biological target: T2, SSIIa (Oryza sativa subsp. indica cv. IR36 (endogenous in developing seeds)); experiment: as above
[12] = biological target: T3, SSI (Oryza sativa subsp. indica cv. IR36 (endogenous in developing seeds)); experiment: as above
[13] = biological target: BEIIa (Oryza sativa subsp. indica cv. IR36 (endogenous in developing seeds)); experiment: co-IP; soluble proteins of developing seeds of the be2b mutant at 15 DAF incubated with isozyme-specific antibodies and protein A magnetic beads; washed with PBS pH 7.4; Western blotting
[14] = biological target: BEIIa (Oryza sativa subsp. indica cv. IR36 (endogenous in developing seeds)); experiment: co-IP; soluble proteins of developing seeds of WT (IR36) at 10 DAF incubated with isozyme-specific antibodies and protein A magnetic beads; washed with PBS pH 7.4; Western blotting
[15] = biological target: BEIIb (Oryza sativa subsp. indica cv. IR36 (endogenous in developing seeds)); experiment: as above
[16] = biological target: BEIIa (Oryza sativa subsp. indica cv. IR36 (endogenous in developing seeds)); experiment: co-IP; soluble proteins of developing seeds of WT (IR36) at 5 DAF incubated with isozyme-specific antibodies and protein A magnetic beads; washed with PBS pH 7.4; Western blotting
[17] = biological target: BEIIb (Oryza sativa subsp. indica cv. IR36 (endogenous in developing seeds)); experiment: as above
[18] = biological target: BEIIa (Oryza sativa subsp. indica cv. IR36 (endogenous in developing seeds)); experiment: co-IP; soluble proteins of developing seeds of the be2b mutant at 5 DAF incubated with isozyme-specific antibodies and protein A magnetic beads; washed with PBS pH 7.4; Western blotting
[19] = biological target: BEIIa (Oryza sativa subsp. indica cv. IR36 (endogenous in developing seeds)); experiment: co-IP; soluble proteins of developing seeds of WT (IR36) at 15 DAF incubated with isozyme-specific antibodies and protein A magnetic beads; washed with PBS pH 7.4; Western blotting
[20] = biological target: BEIIb (Oryza sativa subsp. indica cv. IR36 (endogenous in developing seeds)); experiment: as above
[21] = biological target: BEIIa (Oryza sativa subsp. indica cv. IR36 (endogenous in developing seeds)); experiment: co-IP; soluble proteins of developing seeds of the be2b mutant at 10 DAF incubated with isozyme-specific antibodies and protein A magnetic beads; washed with PBS pH 7.4; Western blotting

| binding [1] | binding [2] | binding [3] | binding [4] | binding [5] | binding [6] | binding [7] | binding [10] | Molecule | also measured |
| --- | --- | --- | --- | --- | --- | --- | --- | --- | --- |
| binds weakly |  |  |  |  |  |  |  | BEIIa (enzyme) |  |
|  | binds weakly | binds | binds | binds weakly | binds | binds |  | PUL (enzyme) | binding [8]: binds weakly; binding [9]: binds |
| binds |  | binds |  |  |  |  | binds | starch plastidial phosphorylase (enzyme) |  |
|  | binds | binds | binds | binds | binds weakly | binds | binds weakly | BEIIb (enzyme) | binding [11]: binds weakly; binding [12]: binds weakly |
|  |  |  |  |  |  |  |  | SSIIa (enzyme, UniProt P0C586 17-810) ASSASRGGPRRGRVVGVAAPPALLYDGRAGRLALRAPPPPRPRPRRRDAGVVRRADDGENEAAVERAGEDDEEEEEFSSGAWQPPRSRRGGVGKVLKRRGTVPPVGRYGSGGDAARVRGAAAPAPAPTQDAASSKNGALLSGRDDDTPASRNGSVVTGADKPAAATPPVTITKLPAPDSPVILPSVDKPQPEFVIPDATAPAPPPPGSNPRSSAPLPKPDNSEFAEDKSAKVVESAPKPKATRSSPIPAVEEETWDFKKYFDLNEPDAAEDGDDDDDWADSDASDSEIDQDDDSGPLAGENVMNVIVVAAECSPWCKTGGLGDVAGALPKALARRGHRVMVVVPRYGDYAEAQDVGIRKYYKAAGQDLEVKYFHAFIDGVDFVFIDAPLFRHRQDDIYGGNRQEIMKRMILFCKAAVEVPWHVPCGGVPYGDGNLVFLANDWHTALLPVYLKAYYRDNGMMQYTRSVLVIHNIAYQGRGPVDEFPYMELPEHYLDHFKLYDPVGGEHANIFGAGLKMADRVVTVSPGYLWELKTTEGGWGLHDIIRENDWKMNGIVNGIDYREWNPEVDVHLQSDGYANYTVASLDSGKPRCKAALQRELGLEVRDDVPLIGFIGRLDGQKGVDIIGDAMPWIAGQDVQLVLLGSGRRDLEVMLQRFEAQHNSKVRGWVGFSVKMAHRITAGADVLVMPSRFEPCGLNQLYAMAYGTVPVVHAVGGLRDTVSAFDPFEDTGLGWTFDRAEPHKLIEALGHCLETYRKYKESWRGLQVRGMSQDLSWDHAAELYEEVLVKAKYQW | binding [13]: binds weakly; binding [14]: binds weakly; binding [15]: binds; binding [16]: binds weakly; binding [17]: binds weakly; binding [18]: binds; binding [19]: binds; binding [20]: binds; binding [21]: binds weakly |
